Data on twelve substances can be found in paper PMC9440028 (Scientific Reports, 2022).

This series in a line: general procedure: Fmoc solid-phase peptide synthesis; HBTU/HOBt/DIPEA. To be noted: hydrotrifluoroacetate (TFA salt); for final HPLC purity: 220 nm.
The mark [1] stands for this setting: whole synthesis, scale 0.081 mmol.
The mark [2] stands for this setting: whole synthesis, scale 0.034 mmol.
[3] abbreviates: whole synthesis, scale 0.158 mmol.
Where [4] appears, read: whole synthesis, scale 0.060 mmol.

Strings that start with PEPTIDE1 are HELM notation: dots part the residues, brackets hold end groups and non-standard residues. Some results are limits rather than exact numbers.

On to “PEPTIDE1{R.[XArgMh7cee8a].P.Y.[XTlehafc99a].L}$$$$V2.0”, for which, where the note is “conjugation step”, the “final HPLC purity” value was more than 99% and the conjugation yield is 77%.
For “PEPTIDE1{R.[XArgMh944cee].P.Y.[XTlehafc99a].L}$$$$V2.0”, for the setting “whole synthesis”, the “final HPLC purity” value is given as more than 99%. Also, under setting [1], the isolated mass worked out at 38.7 mg and the isolated yield stood at 37%.
For “PEPTIDE1{[XArgMh7cee8a].R.P.Y.[XTlehafc99a].L}$$$$V2.0”, for the setting “conjugation step”, the “final HPLC purity” value is recorded as more than 99% and the conjugation yield is reported as 45%.
For “PEPTIDE1{[XArgMh9d1d49].R.P.Y.[XTlehafc99a].L}$$$$V2.0” the same measures were more than 99% and 25%.
For “PEPTIDE1{[XArgMh107bc3].R.P.Y.[XTlehafc99a].L}$$$$V2.0”, in that order: 98% and 79%.
Regarding “PEPTIDE1{[XArgMh944cee].R.P.Y.[XTlehafc99a].L}$$$$V2.0”, the “final HPLC purity” value (whole synthesis) is more than 99%. Also, under setting [2], the isolated mass is 16.9 mg and the isolated yield came out at 39%.
Consider “PEPTIDE1{[XArgMh14679e].R.P.Y.[XTlehafc99a].L}$$$$V2.0”, for which the “final HPLC purity” value (purification step) is on record as 97%. Moreover, under “whole synthesis”, the “final HPLC purity” value was 95%. For the same substance, under setting [3], the isolated mass is recorded as 108.1 mg and the isolated yield amounted to 49%.
Regarding “PEPTIDE1{[XArgMh072038].R.P.Y.[XTlehafc99a].L}$$$$V2.0”, where the note is “late stage modification step”, the “final HPLC purity” value worked out at 99% and the step yield is 90%.
Regarding “PEPTIDE1{[XArgMhd0e5d3].R.P.Y.[XTlehafc99a].L}$$$$V2.0”, under “late stage modification step”, the “final HPLC purity” value was 96% and the step yield is listed as 59%.
With “PEPTIDE1{[XArgMhea3a9e].R.P.Y.[XTlehafc99a].L}$$$$V2.0”, under “whole synthesis”, the “final HPLC purity” value came to 98%. For the setting “whole synthesis, overall, scale 0.2212 mmol”, the isolated yield stood at 45%. Besides, the isolated mass (whole synthesis, scale 0.2212 mmol) came out at 139.5 mg.
Turning to “PEPTIDE1{[XNMeRh0fabbf].[XArgMh7cee8a].P.Y.[XTlehafc99a].L}$$$$V2.0”, where the note is “conjugation step”, the “final HPLC purity” value is recorded as 98% and the conjugation yield was 68%.
On to “PEPTIDE1{[XNMeRh0fabbf].[XArgMh944cee].P.Y.[XTlehafc99a].L}$$$$V2.0”, for which the “final HPLC purity” value (whole synthesis) is more than 99%. Also, under setting [4], the isolated mass is on record as 44 mg and the isolated yield is 57%.
